Test results: article PMC10586200

Amino acid sequences for entries named in this document (tags omitted).
UniProt Q8IY31: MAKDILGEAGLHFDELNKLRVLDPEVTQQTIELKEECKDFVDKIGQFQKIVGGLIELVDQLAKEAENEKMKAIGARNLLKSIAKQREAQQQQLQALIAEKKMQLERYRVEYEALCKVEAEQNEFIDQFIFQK
UniProt A0AVF1: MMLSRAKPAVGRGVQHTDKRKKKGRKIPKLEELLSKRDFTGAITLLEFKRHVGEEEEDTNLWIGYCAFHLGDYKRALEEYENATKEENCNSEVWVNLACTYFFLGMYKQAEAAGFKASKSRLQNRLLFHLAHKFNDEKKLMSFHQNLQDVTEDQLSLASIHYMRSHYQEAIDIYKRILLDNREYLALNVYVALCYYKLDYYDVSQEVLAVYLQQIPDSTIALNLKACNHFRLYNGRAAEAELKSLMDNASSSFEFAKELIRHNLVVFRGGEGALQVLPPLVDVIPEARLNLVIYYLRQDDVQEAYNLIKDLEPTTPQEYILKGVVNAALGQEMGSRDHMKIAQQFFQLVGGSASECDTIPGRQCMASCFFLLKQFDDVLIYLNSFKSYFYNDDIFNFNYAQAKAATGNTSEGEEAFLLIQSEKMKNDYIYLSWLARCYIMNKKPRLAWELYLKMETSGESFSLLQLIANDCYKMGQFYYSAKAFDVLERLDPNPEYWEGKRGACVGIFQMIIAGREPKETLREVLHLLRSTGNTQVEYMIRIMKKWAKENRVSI

Tests used:
Assay in all cases: affinity purification with mass spectrometry; Strep-FLAG-tagged IFT74 constructs transfected into HEK293 cells, anti-FLAG immunoprecipitation, LC-MS/MS with label-free quantification, enrichment against the RAF1 Strep-FLAG control, six replicates each
[1] = target: T1, Strep-FLAG-tagged full-length IFT74 (human) (UniProt Q96LB3)
T1 sequence: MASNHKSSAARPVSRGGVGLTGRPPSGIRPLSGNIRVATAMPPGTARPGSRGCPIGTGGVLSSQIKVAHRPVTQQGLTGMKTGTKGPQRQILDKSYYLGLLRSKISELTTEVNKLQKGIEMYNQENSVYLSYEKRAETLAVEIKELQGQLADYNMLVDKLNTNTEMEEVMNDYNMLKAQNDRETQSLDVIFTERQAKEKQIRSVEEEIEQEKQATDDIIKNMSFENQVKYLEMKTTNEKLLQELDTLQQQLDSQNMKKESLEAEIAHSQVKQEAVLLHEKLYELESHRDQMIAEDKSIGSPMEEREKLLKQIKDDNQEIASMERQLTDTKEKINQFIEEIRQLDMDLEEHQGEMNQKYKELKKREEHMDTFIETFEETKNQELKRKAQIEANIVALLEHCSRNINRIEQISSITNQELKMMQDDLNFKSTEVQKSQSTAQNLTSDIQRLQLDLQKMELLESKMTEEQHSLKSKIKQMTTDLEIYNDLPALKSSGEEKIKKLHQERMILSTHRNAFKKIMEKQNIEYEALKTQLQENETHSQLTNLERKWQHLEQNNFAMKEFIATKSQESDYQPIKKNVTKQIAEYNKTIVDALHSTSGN

[2] = target: T2, Strep-FLAG-tagged truncated IFT74 initiated from M121 (human) (UniProt Q96LB3)
T2 sequence: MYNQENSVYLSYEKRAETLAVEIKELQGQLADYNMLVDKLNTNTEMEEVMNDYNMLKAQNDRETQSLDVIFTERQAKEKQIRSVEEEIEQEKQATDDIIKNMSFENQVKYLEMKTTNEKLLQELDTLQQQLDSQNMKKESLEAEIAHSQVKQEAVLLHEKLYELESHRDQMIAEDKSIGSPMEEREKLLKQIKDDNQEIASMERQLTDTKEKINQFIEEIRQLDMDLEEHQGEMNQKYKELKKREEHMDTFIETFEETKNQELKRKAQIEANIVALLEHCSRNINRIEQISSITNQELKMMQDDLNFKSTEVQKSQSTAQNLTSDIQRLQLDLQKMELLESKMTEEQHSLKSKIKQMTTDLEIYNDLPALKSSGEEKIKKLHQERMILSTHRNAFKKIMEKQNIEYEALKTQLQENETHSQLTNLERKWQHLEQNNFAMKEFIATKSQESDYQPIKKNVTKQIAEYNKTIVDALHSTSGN

[3] = target: T3, Strep-FLAG-tagged truncated IFT74 initiated from M41 (exon 2 deletion mutant) (human) (UniProt Q96LB3)
T3 sequence: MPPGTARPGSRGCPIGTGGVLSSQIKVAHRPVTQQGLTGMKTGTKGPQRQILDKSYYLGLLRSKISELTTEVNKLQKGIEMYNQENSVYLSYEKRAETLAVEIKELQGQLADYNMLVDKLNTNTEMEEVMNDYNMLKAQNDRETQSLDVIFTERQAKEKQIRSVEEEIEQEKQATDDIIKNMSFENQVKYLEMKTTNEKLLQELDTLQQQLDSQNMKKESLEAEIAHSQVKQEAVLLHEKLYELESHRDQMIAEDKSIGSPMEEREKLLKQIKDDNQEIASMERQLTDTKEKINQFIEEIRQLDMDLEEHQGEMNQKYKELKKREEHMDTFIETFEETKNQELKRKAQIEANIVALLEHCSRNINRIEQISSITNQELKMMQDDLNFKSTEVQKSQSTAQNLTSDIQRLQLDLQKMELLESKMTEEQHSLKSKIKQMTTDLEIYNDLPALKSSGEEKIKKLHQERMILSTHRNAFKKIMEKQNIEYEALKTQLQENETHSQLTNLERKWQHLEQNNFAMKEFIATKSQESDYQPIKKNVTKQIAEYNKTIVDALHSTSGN

[4] = target: T4, Strep-FLAG-tagged truncated IFT74 initiated from M80 (human) (UniProt Q96LB3)
T4 sequence: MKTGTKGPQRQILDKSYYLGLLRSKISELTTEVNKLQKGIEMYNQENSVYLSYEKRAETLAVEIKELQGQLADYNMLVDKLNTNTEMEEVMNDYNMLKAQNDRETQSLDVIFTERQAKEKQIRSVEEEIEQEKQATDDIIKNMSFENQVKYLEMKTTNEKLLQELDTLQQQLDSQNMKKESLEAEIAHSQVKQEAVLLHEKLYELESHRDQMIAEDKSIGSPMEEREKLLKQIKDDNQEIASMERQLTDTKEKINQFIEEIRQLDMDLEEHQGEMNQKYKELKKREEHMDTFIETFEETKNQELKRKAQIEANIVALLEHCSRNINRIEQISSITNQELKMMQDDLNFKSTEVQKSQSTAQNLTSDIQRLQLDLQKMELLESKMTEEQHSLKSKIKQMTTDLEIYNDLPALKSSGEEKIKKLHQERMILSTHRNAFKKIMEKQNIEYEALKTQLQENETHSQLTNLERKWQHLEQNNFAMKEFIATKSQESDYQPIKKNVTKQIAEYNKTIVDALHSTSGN

- binding [1]: binds
- binding [2]: no binding
- binding [3]: no binding
- binding [4]: no binding
Molecule: IFT20 (from UniProt Q8IY31 1-132)

- binding [1]: binds
- binding [2]: binds weakly
- binding [3]: binds
- binding [4]: binds
Molecule: IFT56/TTC26 (from UniProt A0AVF1 1-554)

- binding [1]: binds
- binding [2]: no binding
- binding [3]: no binding
- binding [4]: binds
B1: IFT80 (protein, UniProt Q9P2H3 1-777)
chain: MRLKISLLKEPKHQELVSCVGWTTAEELYSCSDDHQIVKWNLLTSETTQIVKLPDDIYPIDFHWFPKSLGVKKQTQAESFVLTSSDGKFHLISKLGRVEKSVEAHCGAVLAGRWNYEGTALVTVGEDGQIKIWSKTGMLRSTLAQQGTPVYSVAWGPDSEKVLYTAGKQLIIKPLQPNAKVLQWKAHDGIILKVDWNSVNDLILSAGEDCKYKVWDSYGRPLYNSQPHEHPITSVAWAPDGELFAVGSFHTLRLCDKTGWSYALEKPNTGSIFNIAWSIDGTQIAGACGNGHVVFAHVVEQHWEWKNFQVTLTKRRAMQVRNVLNDAVDLLEFRDRVIKASLNYAHLVVSTSLQCYVFSTKNWNTPIIFDLKEGTVSLILQAERHFLLVDGSSIYLYSYEGRFISSPKFPGMRTDILNAQTVSLSNDTIAIRDKADEKIIFLFEASTGKPLGDGKFLSHKNEILEIALDQKGLTNDRKIAFIDKNRDLCITSVKRFGKEEQIIKLGTMVHTLAWNDTCNILCGLQDTRFIVWYYPNTVYVDRDILPKTLYERDASEFSKNPHIVSFVGNQVTIRRADGSLVHISITPYPAILHEYVSSSKWEDAVRLCRFVKEQTMWACLAAMAVANRDMTTAEIAYAAIGEIDKVQYINSIKNLPSKESKMAHILLFSGNIQEAEIVLLQAGLVYQAIQININLYNWERALELAVKYKTHVDTVLAYRQKFLETFGKQETNKRYLHYAEGLQIDWEKIKAKIEMEITKEREQSSSSQSSKSIGLKP

Results are given in words; binding and its absence hold for the method and conditions named. Binding seen in cells or lysates may run through a third protein. These calls come from enrichment with a bait or labelling near it, and not all partners need be listed. For part of these data: No binding means not detected with the bait. Tags and fused reporters may be left off the sequences shown. One block for each molecule: values may come before it.
